No constants are given. Whether binding was seen depends on the method and setting. Some entries that bind do so weakly or less than the wild type. For part of these data: Tags and fused reporters may be left off the sequences shown.
Key:
TetR fused to DOT1L = TetR fused to DOT1L (UniProt Q8TEK3); experiment: TetR recruitment to a TetO array, read by ChIP-qPCR
TetR fused to ENL = molecular target: T1, TetR fused to ENL (UniProt Q03111); experiment: as above
T1 sequence: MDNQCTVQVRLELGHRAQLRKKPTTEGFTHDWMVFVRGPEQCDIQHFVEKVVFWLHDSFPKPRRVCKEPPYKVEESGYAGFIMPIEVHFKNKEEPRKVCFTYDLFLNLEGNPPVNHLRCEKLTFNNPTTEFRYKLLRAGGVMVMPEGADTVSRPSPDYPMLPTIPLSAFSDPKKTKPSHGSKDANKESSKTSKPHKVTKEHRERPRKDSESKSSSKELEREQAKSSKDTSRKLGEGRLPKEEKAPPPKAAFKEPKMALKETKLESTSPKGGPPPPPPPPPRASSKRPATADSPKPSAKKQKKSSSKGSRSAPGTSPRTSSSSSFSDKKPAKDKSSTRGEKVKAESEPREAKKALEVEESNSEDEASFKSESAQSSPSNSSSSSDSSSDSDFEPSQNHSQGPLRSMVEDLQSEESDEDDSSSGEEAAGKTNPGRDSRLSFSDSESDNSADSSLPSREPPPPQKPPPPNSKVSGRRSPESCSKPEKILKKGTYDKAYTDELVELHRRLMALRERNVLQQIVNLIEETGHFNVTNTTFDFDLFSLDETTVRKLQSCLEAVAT

Protein sequences, listed by entry. Tags and fused reporters are not part of them. Lines headed by an entry give the natural chain unless they say otherwise; changes in a name come on top.
UniProt Q8TEK3: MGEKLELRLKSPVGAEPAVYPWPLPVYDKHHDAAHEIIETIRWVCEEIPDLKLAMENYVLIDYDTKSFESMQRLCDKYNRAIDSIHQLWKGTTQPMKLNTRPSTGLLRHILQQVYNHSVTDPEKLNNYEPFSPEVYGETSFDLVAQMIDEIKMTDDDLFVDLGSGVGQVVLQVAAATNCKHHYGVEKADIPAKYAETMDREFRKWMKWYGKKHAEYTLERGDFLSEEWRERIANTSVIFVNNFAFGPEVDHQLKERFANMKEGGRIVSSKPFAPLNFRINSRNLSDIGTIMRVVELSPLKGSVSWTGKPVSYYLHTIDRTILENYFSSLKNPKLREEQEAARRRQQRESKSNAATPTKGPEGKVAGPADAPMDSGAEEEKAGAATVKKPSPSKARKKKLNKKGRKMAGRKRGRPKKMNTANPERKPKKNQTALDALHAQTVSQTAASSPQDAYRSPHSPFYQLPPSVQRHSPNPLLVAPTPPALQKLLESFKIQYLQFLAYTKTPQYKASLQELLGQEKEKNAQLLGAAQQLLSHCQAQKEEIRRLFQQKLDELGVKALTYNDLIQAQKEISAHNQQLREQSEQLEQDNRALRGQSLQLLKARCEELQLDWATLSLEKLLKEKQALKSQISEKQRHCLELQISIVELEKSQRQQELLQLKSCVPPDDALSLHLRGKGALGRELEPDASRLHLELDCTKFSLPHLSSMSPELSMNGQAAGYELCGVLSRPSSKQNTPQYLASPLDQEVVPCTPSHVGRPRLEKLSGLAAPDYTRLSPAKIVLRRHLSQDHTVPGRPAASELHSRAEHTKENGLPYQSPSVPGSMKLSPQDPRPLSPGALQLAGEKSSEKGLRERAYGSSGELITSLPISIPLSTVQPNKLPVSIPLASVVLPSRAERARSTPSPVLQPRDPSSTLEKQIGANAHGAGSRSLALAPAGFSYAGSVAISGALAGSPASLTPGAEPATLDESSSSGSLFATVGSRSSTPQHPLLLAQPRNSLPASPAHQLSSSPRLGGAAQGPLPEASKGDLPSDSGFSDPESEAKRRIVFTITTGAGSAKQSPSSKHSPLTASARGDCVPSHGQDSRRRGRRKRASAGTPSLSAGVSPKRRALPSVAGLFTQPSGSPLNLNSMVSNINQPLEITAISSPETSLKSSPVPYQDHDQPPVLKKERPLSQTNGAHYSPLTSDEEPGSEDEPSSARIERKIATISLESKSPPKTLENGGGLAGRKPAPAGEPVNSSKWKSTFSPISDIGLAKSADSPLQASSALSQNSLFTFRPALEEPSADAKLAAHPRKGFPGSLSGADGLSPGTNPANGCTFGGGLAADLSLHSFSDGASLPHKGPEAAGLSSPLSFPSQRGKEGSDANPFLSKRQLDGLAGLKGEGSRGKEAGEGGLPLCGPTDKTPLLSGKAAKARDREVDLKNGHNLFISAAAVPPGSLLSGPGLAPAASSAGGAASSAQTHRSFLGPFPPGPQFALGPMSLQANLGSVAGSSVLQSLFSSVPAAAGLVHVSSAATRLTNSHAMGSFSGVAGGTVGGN
UniProt Q08943: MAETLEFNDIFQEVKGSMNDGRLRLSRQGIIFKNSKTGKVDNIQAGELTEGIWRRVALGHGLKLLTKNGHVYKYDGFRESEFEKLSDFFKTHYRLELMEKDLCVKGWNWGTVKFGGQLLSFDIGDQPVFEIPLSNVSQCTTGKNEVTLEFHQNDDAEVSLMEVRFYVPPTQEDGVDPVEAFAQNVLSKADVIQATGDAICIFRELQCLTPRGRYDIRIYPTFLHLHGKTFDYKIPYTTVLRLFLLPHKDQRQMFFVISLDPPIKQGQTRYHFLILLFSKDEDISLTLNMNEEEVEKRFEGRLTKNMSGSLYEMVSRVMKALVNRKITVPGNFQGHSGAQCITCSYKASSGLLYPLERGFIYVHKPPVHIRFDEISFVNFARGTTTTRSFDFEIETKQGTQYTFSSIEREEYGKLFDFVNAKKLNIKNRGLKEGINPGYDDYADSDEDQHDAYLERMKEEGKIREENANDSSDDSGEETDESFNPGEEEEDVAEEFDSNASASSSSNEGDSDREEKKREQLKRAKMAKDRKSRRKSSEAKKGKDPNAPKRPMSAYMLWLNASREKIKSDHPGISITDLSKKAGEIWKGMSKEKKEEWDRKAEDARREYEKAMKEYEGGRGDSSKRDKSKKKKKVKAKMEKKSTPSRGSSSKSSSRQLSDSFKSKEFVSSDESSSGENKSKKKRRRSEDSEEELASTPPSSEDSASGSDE
UniProt Q6XZL8: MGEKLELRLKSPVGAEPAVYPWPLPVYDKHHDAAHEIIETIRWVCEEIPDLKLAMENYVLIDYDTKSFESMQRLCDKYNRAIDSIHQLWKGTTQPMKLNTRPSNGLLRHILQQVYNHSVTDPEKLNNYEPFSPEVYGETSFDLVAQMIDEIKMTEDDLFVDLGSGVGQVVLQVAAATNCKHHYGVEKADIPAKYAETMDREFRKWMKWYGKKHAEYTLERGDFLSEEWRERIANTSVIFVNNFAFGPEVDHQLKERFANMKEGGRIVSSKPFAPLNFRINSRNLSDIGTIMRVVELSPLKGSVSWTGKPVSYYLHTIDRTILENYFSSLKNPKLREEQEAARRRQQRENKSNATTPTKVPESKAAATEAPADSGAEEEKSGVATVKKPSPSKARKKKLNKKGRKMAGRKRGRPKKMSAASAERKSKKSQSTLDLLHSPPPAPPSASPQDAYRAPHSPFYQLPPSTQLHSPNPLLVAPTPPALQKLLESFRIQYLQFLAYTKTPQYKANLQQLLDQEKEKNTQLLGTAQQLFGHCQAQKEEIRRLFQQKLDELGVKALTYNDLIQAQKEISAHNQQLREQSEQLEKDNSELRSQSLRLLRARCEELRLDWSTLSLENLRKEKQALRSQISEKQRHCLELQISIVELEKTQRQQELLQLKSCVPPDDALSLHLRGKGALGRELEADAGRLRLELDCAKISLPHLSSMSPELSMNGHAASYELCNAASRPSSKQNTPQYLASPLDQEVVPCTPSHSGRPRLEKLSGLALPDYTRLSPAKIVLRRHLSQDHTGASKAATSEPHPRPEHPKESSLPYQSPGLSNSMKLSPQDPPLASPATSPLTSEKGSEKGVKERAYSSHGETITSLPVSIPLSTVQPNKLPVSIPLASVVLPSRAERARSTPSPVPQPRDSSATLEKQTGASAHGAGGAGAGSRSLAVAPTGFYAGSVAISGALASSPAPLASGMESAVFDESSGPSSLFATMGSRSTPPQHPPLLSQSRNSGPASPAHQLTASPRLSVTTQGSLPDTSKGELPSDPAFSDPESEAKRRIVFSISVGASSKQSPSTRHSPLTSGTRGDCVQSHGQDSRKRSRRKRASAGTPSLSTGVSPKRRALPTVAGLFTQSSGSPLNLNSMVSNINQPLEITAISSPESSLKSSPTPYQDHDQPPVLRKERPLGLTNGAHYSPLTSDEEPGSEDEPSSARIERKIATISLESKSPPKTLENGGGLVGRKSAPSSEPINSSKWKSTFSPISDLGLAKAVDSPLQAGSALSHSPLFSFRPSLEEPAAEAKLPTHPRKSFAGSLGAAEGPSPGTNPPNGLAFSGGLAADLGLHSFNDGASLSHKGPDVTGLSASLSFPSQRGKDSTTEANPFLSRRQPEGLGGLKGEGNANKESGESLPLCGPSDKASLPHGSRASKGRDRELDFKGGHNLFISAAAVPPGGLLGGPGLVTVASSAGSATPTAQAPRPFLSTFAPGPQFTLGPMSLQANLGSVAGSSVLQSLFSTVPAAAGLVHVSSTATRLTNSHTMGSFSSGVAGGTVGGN

binding (TetR fused to DOT1L)	binding (TetR fused to ENL)	Substance
binds	binds	FACT, endogenous in mESCs (read through Ssrp1) (from UniProt Q08943 1-708; Q920B9 1-1047) (complex)
–	binds	DOT1L, endogenous in mESCs (from UniProt Q6XZL8 1-1540)

— publication doi:10.1101/2022.05.27.493676
